Reference: the supplement of paper PMC3334620
In all, about 33,000 sequences were measured (“E-score (-0.5 to 0.5)”: median about -0.0034, highest 2% from about 0.25 on). The list shows a part of the results.

Target: T1, Yap3 (UniProt P38749)
T1 sequence: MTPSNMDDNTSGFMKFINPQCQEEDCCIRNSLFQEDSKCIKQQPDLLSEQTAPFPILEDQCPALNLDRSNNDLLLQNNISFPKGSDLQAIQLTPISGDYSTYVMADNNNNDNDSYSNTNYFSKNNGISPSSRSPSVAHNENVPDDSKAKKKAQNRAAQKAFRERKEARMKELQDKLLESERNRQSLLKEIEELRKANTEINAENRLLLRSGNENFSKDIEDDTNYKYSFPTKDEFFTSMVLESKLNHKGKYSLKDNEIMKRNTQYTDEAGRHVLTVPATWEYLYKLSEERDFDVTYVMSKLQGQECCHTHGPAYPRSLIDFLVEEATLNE
Assay: PBM E-score (8-mer binding enrichment) (E-score (-0.5 to 0.5)); higher = stronger / more preferred TF binding
Settings: protein concentration: 100 nM; construct: GST-full length
Summary of the method: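 Full-length yeast transcription factors or their DNA-binding domains, GST-tagged and expressed with PURExpress, were applied at about 100-200 nM to universal all-10-mer Agilent arrays. These arrays had been made double-stranded by primer extension on fresh or once-stripped slides. Detection used fluorescent anti-GST, normalisation used masliner, and E-scores for ungapped eight-base words pooled with reverse complements came from the Universal PBM Analysis Suite.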

Row | Sequence | PBM E-score
1 | AAAGAGAT | -0.0227
2 | TACAGATA | 0.0119
3 | AATCCTGC | 0.0275
4 | CCACCGAC | -0.127
5 | CCACGCAA | -0.0495
6 | CAAGAGCA | -0.0338
7 | ATCCACCA | 0.118
8 | CTTGCTTA | 0.0338
9 | ACGCGCAC | -0.015
10 | GAAGAGCA | -0.258
11 | AACACATA | 0.138
12 | GTGCCTGA | -0.274
13 | TCAACAAA | 0.099
14 | TACACCGA | -0.104
15 | ATATGCCA | 0.0749
16 | AACCCGGT | -0.157
17 | GAAAAGGC | -0.0242
18 | AATTGGGG | -0.023
19 | AGGCAGCC | -0.0602
20 | AAAACGGG | 0.207
21 | CGCCTCCC | -0.256
22 | GAAGCTCA | -0.114
23 | TCGGCTAA | 0.0362
24 | AGACGGTA | 0.127
25 | TAGTTGGA | 0.0793

Row | Sequence | PBM E-score
26 | AGAATGAA | 0.147
27 | CACCCAGC | -0.244
28 | ACTCGAGT | 0.219
29 | GCTCAGAC | -0.0895
30 | AACCCGTT | -0.113
31 | AGAAGCGG | -0.0828
32 | CCGTGGGC | -0.183
33 | AGCCAGTC | -0.151
34 | AGACTGCC | -0.0226
35 | CACCACCG | -0.394
36 | ACTAAGCT | 0.0783
37 | AGTTTGAG | -0.117
38 | AGTATGAA | 0.252
39 | CAGAGGGC | -0.153
40 | ACTACAGG | 0.161
41 | CTACCAGC | -0.158
42 | ATGACGAA | 0.0999
43 | ACTCGGAC | 0.0349
44 | GAGGGTGA | -0.177
45 | AACCCGGG | -0.215
46 | AAGTACGG | -0.0366
47 | TAGCTAGA | 0.184
48 | CTATGAGC | -0.161
49 | CATAGTAG | 0.148
50 | AAGTCCCC | -0.243

Row | Sequence | PBM E-score
51 | ATTGTAAG | -0.0137
52 | CAATGCTC | -0.0558
53 | CAAACTTG | -0.0705
54 | CACGACTC | 0.036
55 | GAACAACC | 0.143
56 | CGGCACCG | -0.109
57 | AATGCCGC | 0.112
58 | ATAGGGGA | -0.0709
59 | GGCCGTGA | -0.0401
60 | GCAGTCGC | -0.14
61 | AGGTACCC | -0.142
62 | CATCCAAC | 0.0736
63 | CTTATAGC | 0.0434
64 | ATGAGGCA | -0.0878
65 | GACGTTGC | -0.0109
66 | ATATCATA | 0.271
67 | ATATGCGC | 0.0899
68 | CTAAGCCC | -0.174
69 | GATGTCGA | -0.034
70 | CTGCCCTA | -0.132
71 | AAGAATGG | -0.0369
72 | CGATCGTA | 0.126
73 | AGTTTGCG | 0.11
74 | AATATTTC | 0.154
75 | TAGGAGCA | -0.176

Some of the entries so far, as labelled records.
TACAGATA
  PBM E-score: 0.0119
AGGCAGCC
  PBM E-score: -0.0602

(next part)

Row | Sequence | PBM E-score
76 | AACTGGCG | 0.0298
77 | CGAGGGAC | -0.198
78 | AAGGTAAT | 0.139
79 | CTACCTAG | -0.0731
80 | AAAAGTCG | 0.0637
81 | ACGGAATC | -0.00809
82 | GATTCTAC | -0.0393
83 | GTGATTAA | 0.166
84 | GCACGACA | -0.127
85 | TCGAGAGA | -0.207
86 | CGAACTCA | -0.124
87 | GCAGCCAC | -0.12
88 | CCCGGTTA | -0.309
89 | ACCCTGTG | -0.044
90 | ATACTCCA | 0.063
91 | AACTCCAT | -0.0459
92 | AAACGCGT | -0.032
93 | GCGGTTCC | -0.0658
94 | CAATCTCA | 0.0896
95 | CGGCCGCA | -0.0862
96 | AAACCAGT | -0.0425
97 | AATTGATA | 0.19
98 | CTTCCTCA | -0.0697
99 | ATGACACA | 0.24
100 | AGCGGGAA | 0.0988

Row | Sequence | PBM E-score
101 | ATGATCGC | 0.0319
102 | CCCCTCTC | -0.306
103 | CATGGCCA | -0.25
104 | GATTAGGC | 0.125
105 | ACGATTAC | 0.127
106 | CCAGAGCA | 0.0489
107 | CCTTAACC | -0.248
108 | AATTGACG | 0.136
109 | CGGATACA | 0.131
110 | GTTACGCA | 0.0313
111 | CCGCATCA | -0.0944
112 | CAGTGGAA | -0.111
113 | AGATCCTG | -0.163
114 | CAGTACCA | -0.0169
115 | CATGGGCG | -0.062
116 | GGACGAGA | -0.05
117 | CTAAGGTC | -0.0277
118 | ATACGCTG | 0.117
119 | TCCTATCA | -0.00883
120 | ATTCTATA | 0.153
121 | CTCGTTCC | -0.0635
122 | GGTAGCGA | 0.0404
123 | ACAAAATG | 0.215
124 | CTACAAGC | -0.0331
125 | CAGTTAGA | -0.0207

Row | Sequence | PBM E-score
126 | CGAGACCA | -0.0599
127 | CGTCACAA | -0.00013
128 | ATCATGTA | 0.152
129 | GATACCGC | 0.0673
130 | ATTCGTAA | 0.292
131 | GCAAGCAC | -0.222
132 | TATACACA | 0.134
133 | ATGTCATG | 0.108
134 | GCCTGAGA | -0.208
135 | AAGAACTC | 0.0687
136 | CCAAGTCG | -0.0405
137 | AATTATGA | 0.278
138 | GCAGATAA | -0.0214
139 | TCCACAGA | 0.083
140 | GAACTCCA | -0.0465
141 | CGAACTGA | -0.0309
142 | CGCCACTA | -0.0394
143 | CGGAGACG | 0.0722
144 | ATCGTGCG | 0.238
145 | CGCCTAAG | -0.162
146 | GACCCTCA | -0.348
147 | GTATAAGA | 0.0832
148 | AATGCTGA | -0.00858
149 | GCCGCTGA | -0.057
150 | TGCCCGCA | 0.0531

Random excerpt: 6 records from the list.
Row | Sequence | PBM E-score
126 | CGAGACCA | -0.0599
140 | GAACTCCA | -0.0465
127 | CGTCACAA | -0.00013
143 | CGGAGACG | 0.0722
141 | CGAACTGA | -0.0309
135 | AAGAACTC | 0.0687

(further entries)

Row | Sequence | PBM E-score
151 | CGAAGTCC | -0.171
152 | ATATACGC | 0.0422
153 | AGCTTACG | 0.149
154 | GAGACAGC | -0.0108
155 | CCCACCTC | -0.148
156 | GGTGTCAC | -0.0636
157 | CTACTGAC | -0.083
158 | ATACCGGG | 0.0138
159 | AGTGCTGG | -0.082
160 | GCCAGACA | 0.0706
161 | CGGGAAGA | 0.144
162 | ATGTTATC | 0.206
163 | ACAAACTG | -0.0673
164 | AGGCGAGG | -0.212
165 | GAGCTATA | 0.00431
166 | CGCCTCCG | -0.245
167 | AGTTATCA | 0.00581
168 | ATTCTCTG | -0.049
169 | ACCCGAGC | -0.0717
170 | TGTATCAA | 0.174
171 | AGAACTAT | 0.158
172 | ATTGGCAC | -0.0204

Rewritten with tabs: part of the list above.
Row	Sequence	PBM E-score
9	ACGCGCAC	-0.015
126	CGAGACCA	-0.0599
